According to PMC11324514:
These are yes or no findings as the source states them, for the method shown. Some results given as binding are weak or reduced against the parent protein; the word gives no strength.

Chains of the proteins cited; added tags and fusions are not shown.
UniProt Q07157: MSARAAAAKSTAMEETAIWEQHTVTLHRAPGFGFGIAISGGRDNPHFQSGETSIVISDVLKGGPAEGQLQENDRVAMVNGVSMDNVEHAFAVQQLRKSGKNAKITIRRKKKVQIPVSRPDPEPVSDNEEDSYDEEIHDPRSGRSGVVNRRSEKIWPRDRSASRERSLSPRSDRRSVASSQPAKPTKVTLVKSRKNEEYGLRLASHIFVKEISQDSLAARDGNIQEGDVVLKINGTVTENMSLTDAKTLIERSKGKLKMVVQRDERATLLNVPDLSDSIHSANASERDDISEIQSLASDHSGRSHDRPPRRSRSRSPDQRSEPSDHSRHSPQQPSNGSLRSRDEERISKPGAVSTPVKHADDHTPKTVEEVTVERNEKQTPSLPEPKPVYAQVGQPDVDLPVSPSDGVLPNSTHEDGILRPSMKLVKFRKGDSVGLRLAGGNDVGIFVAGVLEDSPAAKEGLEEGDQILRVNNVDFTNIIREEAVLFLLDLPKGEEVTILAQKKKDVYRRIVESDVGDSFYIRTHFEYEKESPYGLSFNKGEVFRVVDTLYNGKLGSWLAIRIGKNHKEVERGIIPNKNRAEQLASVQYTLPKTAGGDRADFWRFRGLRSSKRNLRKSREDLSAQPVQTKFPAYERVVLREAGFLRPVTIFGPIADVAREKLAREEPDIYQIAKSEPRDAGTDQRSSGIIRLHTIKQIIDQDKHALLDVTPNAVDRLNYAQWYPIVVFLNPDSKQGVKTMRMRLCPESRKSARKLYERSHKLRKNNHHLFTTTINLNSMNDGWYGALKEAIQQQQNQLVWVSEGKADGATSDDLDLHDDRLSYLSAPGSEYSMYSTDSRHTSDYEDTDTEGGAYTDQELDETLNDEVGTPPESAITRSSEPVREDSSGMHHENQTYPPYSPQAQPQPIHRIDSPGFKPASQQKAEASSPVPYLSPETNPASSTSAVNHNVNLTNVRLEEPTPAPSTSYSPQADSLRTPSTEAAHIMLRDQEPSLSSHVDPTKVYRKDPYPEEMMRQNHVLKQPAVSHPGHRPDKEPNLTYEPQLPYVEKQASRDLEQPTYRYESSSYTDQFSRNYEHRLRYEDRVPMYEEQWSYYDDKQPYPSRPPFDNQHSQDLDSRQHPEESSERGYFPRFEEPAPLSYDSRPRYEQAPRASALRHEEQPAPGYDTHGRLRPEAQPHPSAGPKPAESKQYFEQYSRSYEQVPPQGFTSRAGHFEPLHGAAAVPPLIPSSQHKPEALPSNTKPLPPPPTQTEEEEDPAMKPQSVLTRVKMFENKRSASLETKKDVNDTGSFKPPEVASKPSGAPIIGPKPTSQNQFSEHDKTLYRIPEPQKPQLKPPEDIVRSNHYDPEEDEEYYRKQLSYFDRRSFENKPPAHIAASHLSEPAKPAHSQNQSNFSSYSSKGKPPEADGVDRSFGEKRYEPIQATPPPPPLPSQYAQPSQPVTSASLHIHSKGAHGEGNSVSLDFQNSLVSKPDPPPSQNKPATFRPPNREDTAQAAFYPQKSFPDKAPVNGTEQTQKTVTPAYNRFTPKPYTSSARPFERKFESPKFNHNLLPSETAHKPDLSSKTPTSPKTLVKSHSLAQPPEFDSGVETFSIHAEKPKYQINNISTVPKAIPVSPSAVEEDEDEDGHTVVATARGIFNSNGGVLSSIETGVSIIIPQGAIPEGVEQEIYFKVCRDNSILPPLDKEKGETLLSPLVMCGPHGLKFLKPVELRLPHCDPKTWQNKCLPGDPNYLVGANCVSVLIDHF
UniProt Q8NI35: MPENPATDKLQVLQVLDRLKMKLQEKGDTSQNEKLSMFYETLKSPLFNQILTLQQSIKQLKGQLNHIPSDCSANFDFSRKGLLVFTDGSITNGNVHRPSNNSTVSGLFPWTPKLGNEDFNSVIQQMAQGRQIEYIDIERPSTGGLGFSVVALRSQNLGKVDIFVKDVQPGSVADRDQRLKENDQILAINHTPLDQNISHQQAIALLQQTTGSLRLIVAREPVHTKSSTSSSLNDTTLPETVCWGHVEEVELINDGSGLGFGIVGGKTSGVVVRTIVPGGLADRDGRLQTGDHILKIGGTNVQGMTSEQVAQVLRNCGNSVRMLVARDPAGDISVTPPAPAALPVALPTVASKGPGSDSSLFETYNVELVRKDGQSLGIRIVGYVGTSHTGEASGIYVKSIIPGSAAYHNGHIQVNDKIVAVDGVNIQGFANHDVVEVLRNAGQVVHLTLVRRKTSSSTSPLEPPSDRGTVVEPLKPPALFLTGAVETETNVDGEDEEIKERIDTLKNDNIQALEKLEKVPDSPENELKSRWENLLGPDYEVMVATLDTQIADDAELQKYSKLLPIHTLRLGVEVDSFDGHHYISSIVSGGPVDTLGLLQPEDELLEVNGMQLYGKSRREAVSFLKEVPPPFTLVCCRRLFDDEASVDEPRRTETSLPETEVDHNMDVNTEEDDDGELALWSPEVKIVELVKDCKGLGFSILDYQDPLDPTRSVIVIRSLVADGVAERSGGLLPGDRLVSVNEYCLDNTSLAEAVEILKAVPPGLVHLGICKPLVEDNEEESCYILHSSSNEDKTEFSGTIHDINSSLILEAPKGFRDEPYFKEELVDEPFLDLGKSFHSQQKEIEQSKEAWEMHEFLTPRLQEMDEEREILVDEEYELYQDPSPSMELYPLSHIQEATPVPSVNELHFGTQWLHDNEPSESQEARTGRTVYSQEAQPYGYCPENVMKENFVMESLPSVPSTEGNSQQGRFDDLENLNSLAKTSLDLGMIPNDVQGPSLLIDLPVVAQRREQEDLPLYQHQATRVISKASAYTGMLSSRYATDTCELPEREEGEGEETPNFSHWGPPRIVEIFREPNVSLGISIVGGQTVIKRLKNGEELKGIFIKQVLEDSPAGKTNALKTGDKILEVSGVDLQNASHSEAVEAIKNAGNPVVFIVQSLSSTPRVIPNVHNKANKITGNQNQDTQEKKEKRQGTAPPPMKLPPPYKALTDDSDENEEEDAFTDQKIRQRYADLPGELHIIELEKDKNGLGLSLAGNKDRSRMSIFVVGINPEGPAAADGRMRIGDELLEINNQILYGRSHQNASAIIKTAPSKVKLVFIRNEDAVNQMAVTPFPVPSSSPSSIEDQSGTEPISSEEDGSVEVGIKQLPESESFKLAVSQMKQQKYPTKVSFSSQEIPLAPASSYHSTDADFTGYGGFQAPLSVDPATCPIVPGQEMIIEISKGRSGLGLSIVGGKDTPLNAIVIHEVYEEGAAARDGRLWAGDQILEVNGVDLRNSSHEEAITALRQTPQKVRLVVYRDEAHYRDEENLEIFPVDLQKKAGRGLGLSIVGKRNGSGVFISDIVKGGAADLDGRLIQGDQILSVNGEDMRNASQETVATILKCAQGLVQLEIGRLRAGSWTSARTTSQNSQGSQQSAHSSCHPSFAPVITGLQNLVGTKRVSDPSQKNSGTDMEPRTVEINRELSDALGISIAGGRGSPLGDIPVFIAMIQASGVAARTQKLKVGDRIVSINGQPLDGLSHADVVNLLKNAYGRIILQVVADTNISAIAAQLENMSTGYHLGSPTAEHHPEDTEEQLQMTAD

Biological target: GFP–ZO-1 (UniProt Q07157)
Assay: client partitioning into condensates in cells (fluorescence microscopy); HEK293 cells coexpressing ZO-1 with GFP and clients with mCherry; client intensity inside against outside the ZO-1 condensate, background subtracted (partitioning coefficient)

full length PATJ labelled with mCherry (from UniProt Q8NI35 1-1801)
binding: binds
